Reference: the supplement of paper PMC10849652
Some of the results follow.

Protein sequences, listed by entry. Tags and fused reporters are not part of them. Lines headed by an entry give the natural chain unless they say otherwise; changes in a name come on top.
UniProt Q15063: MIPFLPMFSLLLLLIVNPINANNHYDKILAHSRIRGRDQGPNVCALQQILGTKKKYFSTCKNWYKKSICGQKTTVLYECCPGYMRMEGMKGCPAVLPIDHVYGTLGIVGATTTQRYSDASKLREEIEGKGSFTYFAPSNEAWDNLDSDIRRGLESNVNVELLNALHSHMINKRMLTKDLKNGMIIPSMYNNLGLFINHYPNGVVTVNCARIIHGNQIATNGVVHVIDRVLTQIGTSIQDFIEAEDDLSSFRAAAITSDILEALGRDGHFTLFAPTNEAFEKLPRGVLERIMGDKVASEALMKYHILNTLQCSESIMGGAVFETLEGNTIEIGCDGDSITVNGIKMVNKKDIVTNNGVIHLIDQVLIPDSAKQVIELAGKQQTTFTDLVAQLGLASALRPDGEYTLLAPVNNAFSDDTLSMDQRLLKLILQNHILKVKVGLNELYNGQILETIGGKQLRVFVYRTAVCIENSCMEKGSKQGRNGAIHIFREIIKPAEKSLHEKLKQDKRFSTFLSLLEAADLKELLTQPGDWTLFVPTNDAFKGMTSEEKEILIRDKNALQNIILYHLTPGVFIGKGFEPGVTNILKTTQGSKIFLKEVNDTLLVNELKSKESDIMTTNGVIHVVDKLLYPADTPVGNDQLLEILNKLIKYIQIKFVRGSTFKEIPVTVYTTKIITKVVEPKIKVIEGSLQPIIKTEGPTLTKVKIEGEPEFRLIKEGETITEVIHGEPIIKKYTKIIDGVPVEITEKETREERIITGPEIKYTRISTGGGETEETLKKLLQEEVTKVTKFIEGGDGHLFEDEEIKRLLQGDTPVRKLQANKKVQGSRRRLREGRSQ
UniProt P54277: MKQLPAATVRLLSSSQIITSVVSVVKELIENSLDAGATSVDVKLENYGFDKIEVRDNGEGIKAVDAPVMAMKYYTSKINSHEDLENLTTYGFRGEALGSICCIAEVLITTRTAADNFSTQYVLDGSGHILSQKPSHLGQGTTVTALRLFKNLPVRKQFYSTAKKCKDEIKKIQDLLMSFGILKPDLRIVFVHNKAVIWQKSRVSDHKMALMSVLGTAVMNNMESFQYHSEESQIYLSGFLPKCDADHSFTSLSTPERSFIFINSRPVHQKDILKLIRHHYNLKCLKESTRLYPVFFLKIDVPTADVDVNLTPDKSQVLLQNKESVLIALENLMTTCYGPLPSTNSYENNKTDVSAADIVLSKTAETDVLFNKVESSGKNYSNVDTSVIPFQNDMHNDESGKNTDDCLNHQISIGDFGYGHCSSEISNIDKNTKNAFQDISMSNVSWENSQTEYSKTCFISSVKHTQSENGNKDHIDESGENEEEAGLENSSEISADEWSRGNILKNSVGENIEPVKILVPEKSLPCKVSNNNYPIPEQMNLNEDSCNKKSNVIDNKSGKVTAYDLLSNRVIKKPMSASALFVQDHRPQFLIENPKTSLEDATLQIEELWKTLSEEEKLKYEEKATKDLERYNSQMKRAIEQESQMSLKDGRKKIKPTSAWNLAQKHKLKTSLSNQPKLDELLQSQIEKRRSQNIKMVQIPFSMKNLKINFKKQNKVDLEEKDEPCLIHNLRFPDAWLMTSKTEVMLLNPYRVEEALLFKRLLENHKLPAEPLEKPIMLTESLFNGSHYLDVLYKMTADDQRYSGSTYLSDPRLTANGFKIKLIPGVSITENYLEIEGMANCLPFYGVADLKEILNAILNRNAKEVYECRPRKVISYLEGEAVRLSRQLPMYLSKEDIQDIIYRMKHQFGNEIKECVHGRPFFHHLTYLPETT
UniProt Q8NBT0: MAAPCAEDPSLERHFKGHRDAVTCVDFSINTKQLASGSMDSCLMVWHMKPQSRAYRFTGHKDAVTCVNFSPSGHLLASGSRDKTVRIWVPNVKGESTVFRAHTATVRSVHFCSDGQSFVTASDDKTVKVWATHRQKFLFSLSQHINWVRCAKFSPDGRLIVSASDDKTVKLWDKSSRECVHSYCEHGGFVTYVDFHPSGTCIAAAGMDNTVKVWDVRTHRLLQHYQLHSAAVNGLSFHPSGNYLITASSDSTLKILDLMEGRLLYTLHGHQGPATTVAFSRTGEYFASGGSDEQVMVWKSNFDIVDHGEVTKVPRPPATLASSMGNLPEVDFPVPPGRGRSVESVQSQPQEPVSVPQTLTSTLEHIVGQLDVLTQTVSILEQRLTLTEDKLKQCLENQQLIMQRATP
UniProt O43157, whole entry, looked up: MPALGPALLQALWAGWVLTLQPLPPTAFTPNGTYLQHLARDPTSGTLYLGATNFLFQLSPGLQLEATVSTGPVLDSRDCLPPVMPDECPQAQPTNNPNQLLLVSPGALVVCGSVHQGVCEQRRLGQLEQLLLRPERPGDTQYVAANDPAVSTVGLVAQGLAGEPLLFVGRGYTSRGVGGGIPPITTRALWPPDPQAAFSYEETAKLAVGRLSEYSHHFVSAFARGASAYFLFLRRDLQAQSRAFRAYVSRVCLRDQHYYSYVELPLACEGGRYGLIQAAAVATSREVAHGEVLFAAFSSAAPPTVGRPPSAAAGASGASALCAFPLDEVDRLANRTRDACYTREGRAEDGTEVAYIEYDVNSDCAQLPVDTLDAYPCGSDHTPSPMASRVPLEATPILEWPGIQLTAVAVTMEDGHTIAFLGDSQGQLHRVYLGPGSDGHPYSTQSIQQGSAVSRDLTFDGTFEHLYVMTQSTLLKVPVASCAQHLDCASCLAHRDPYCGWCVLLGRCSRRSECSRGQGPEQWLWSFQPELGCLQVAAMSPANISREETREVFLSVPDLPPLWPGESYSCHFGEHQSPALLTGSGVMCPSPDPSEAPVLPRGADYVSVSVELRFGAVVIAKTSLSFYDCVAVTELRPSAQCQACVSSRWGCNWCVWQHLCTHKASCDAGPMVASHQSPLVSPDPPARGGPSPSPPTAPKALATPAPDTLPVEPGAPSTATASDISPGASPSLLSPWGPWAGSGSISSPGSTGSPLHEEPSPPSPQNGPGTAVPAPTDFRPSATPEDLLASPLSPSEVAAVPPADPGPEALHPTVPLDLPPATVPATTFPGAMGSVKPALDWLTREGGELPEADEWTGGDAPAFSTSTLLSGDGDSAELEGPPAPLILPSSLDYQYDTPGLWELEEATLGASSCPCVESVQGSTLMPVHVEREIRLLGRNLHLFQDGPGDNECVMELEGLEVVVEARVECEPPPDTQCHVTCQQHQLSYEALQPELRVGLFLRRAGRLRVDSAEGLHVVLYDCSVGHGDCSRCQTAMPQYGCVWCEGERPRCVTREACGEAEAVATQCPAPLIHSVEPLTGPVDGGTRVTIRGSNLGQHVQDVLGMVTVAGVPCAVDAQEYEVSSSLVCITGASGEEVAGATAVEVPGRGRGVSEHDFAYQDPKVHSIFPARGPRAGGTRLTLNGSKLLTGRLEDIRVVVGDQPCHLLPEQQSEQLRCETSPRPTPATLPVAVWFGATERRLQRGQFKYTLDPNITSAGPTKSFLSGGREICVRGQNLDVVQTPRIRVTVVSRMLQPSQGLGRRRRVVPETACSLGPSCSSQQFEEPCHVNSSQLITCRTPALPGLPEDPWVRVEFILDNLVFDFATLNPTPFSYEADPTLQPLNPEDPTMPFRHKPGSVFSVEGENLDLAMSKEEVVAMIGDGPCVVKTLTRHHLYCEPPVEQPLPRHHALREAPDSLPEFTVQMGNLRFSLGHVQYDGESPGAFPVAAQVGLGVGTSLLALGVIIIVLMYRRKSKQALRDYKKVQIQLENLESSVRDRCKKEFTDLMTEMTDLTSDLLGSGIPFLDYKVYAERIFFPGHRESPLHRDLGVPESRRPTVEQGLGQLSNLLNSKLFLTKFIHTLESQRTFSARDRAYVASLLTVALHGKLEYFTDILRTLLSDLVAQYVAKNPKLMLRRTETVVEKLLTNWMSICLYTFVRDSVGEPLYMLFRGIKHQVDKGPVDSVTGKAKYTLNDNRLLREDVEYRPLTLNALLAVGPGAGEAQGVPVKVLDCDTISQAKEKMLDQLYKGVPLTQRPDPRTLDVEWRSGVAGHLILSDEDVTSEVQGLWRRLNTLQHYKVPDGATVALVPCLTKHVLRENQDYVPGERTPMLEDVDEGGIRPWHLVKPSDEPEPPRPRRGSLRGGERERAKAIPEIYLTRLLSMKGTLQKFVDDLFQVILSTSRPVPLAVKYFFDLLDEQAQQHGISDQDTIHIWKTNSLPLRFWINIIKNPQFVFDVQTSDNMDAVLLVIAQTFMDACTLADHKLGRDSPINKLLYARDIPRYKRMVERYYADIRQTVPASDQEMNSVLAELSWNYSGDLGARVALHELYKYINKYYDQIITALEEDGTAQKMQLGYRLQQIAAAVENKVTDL
UniProt Q8TC44: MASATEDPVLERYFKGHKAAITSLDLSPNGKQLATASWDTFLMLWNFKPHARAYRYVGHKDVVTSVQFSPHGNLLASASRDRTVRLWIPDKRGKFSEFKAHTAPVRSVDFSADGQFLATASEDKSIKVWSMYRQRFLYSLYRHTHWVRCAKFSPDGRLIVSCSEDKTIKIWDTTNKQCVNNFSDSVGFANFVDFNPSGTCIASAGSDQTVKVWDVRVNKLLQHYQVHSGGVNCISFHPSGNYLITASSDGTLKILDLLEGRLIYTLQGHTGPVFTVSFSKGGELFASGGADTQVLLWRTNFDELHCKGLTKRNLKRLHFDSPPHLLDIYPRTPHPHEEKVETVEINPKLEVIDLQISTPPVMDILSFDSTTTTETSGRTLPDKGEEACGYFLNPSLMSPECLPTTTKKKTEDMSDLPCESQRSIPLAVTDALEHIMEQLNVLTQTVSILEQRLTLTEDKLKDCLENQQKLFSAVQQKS
UniProt Q68D20: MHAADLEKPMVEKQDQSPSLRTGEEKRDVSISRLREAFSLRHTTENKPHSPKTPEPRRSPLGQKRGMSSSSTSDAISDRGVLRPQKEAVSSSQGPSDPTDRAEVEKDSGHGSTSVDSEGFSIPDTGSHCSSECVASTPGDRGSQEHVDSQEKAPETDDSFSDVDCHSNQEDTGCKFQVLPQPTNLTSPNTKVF
UniProt Q8NEY8: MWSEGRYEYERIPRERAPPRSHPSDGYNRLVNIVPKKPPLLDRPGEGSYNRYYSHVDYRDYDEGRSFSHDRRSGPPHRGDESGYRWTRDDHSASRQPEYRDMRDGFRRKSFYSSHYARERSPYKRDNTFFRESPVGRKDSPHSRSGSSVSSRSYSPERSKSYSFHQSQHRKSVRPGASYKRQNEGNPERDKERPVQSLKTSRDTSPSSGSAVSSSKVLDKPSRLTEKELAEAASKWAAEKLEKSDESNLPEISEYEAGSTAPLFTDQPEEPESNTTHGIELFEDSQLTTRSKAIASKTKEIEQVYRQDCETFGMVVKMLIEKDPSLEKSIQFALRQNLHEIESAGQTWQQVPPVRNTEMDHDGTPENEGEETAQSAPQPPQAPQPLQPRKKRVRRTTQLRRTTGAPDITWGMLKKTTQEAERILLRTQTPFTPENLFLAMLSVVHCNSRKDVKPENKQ
UniProt P11086: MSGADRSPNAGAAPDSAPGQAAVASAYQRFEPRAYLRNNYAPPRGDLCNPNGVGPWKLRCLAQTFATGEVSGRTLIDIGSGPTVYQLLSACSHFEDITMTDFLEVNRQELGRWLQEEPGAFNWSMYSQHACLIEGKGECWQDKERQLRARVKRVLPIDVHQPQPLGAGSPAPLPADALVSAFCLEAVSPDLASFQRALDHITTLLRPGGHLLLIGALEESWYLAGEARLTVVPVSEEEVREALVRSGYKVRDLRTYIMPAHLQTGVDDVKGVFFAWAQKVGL
UniProt Q6T4P5: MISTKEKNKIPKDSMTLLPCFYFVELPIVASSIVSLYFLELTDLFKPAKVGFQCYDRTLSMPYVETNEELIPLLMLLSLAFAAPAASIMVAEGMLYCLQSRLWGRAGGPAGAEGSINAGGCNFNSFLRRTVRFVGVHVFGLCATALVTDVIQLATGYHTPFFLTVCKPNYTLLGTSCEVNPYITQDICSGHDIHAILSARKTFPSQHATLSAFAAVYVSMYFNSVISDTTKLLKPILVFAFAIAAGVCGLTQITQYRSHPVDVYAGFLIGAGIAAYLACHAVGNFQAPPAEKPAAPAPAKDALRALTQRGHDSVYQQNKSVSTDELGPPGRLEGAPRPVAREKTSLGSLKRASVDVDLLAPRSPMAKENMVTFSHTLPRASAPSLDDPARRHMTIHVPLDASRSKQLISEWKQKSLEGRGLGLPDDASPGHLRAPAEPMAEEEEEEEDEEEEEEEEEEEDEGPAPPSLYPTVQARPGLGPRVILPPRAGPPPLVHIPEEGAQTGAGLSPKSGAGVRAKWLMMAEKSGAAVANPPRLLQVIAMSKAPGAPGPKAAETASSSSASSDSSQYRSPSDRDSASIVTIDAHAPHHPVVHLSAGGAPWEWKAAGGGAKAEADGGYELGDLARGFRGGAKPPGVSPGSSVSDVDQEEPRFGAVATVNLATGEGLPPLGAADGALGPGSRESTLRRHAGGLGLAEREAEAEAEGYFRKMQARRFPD
UniProt Q9HBL7: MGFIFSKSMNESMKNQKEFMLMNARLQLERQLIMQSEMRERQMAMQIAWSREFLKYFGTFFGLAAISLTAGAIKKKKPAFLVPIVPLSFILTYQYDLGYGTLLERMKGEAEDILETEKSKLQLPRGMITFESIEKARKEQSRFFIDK

These targets were tested with CN1CC[C@H](c2c(O)cc(O)c3c(=O)cc(-c4ccccc4Cl)oc23)[C@H](O)C1 [alvocidib] (assay: log2 fold change, soluble protein after heating vs DMSO (PISA); higher = thermal stabilisation; K562 lysate, 10 uM; active = over 0.2 and 3.5 SD of the protein, either way, in both replicates (recomputed)).
In short: (§1)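 Following dounce homogenisation of K562 pellets in PBS pH 7.4 with 1 mM MgCl2, crude extract at 1 mg/mL protein was incubated for 30 min with 10 μM compound. Aliquots were then heated for 3 min over 48°C-58°C and pooled, NP-40 was added to 0.5% at 4°C, and soluble protein was recovered as the supernatant at 21,000xg for 90 min. Channel-sum-equalised TMTpro 16plex LC-MS/MS quantified this protein. Each value, from duplicates, is a log-two fold change in thermal stability relative to solvent controls.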

log2 fold change, inactive:
PLTP (UniProt P55058) -0.184
POLR2K (UniProt P53803) 0.021
PODXL (UniProt O00592) -0.052
POF1B isoform 1 (UniProt Q8WVV4) -0.221
PMM1 (UniProt Q92871) -0.129
POSTN (UniProt Q15063) 0.081
PMS1 (UniProt P54277) -0.038
PLPP6 (UniProt Q8IY26) 0.011
PNPLA4 (UniProt P41247) 0.074
POC1A (UniProt Q8NBT0) -0.086
PML isoform 11 (UniProt P29590) 0.043
PPIC (UniProt P45877) -0.031
PLEKHG4 (UniProt Q58EX7) -0.016
POMK (UniProt Q9H5K3) 0.013
PPFIBP2 (UniProt Q8ND30) 0.091
POM121C (UniProt A8CG34) -0.089
PLEKHJ1 (UniProt Q9NW61) 0.105

The targets below were run with CN1CCc2c(c3ccccc3n2Cc2ccc(C(=O)NO)cc2)C1 [Tubastatin A] in the same assay as above.
In short: as §1

log2 fold change, inactive:
PLXNB1 (UniProt O43157) -0.063
POTEKP (UniProt Q9BYX7) -0.315
PLTP (UniProt P55058) -0.188
POLR2K (UniProt P53803) 0.127
PLEKHM1 (UniProt Q9Y4G2) 0.061
POC1B (UniProt Q8TC44) -0.224
PPARGC1B (UniProt Q86YN6) -0.074
PMM1 (UniProt Q92871) -0.013
POSTN (UniProt Q15063) 0.051
POU6F1, A0A1C7CYV8 0.044
PMS1 (UniProt P54277) -0.046
PLXND1 (UniProt Q9Y4D7) 0.111
PLPP6 (UniProt Q8IY26) 0.041
PMS2CL (UniProt Q68D20) 0.097
PNPLA4 (UniProt P41247) 0.147
POLR2J (UniProt P52435) -0.028
PPIC (UniProt P45877) 0.089
PLEKHG4 (UniProt Q58EX7) -0.015
PPHLN1 isoform 3 (UniProt Q8NEY8) -0.021
PNMT (UniProt P11086) 0.118
POMK (UniProt Q9H5K3) -0.032
PLPPR3 isoform 3 (UniProt Q6T4P5) -0.028
PLGRKT (UniProt Q9HBL7) 0.072
PNMA8A (UniProt Q86V59) -0.071
POM121C (UniProt A8CG34) 0.124
PLEKHJ1 (UniProt Q9NW61) 0.102
